Reference: US20080175800A1, “USE OF SPECIFIC MENTHYL 3-OXOCARBOXYLIC ACID ESTERS AS PHYSIOLOGICALLY ACTIVE COOLING SUBSTANCES” (SYMRISE GmbH & Co. KG, priority 2007, published 2008)

Test: Sensory evaluation in confectioner's fondant by a panel of experts (cooling action)
Type: in vivo
Details: 0.05 wt. % in confectioner's fondant
Experimental: The compounds from Examples 1 and 2 were tested for their sensory properties, in particular their cooling action. To this end, they were dissolved, in each case in a specific final concentration, in a mass prepared from sucrose (saccharose) and water (confectioner's fondant, supplier Nordzucker AG, Nordstemmen) and evaluated by a panel of experts. Sensory impressions were rated and the cooling action was assessed on a scale from 1 (no cooling action) to 9 (extremely strong cooling action).

SMILES: CC(=O)CC(=O)O[C@@H]1C[C@H](C)CC[C@H]1C(C)C [Example 1, (L)-menthyl 3-oxo-butyrate]
- bitterness: not bitter
- sensory impression (flavor note): slightly flowery

SMILES: CCC(=O)CC(=O)O[C@@H]1C[C@H](C)CC[C@H]1C(C)C [Example 2, (L)-menthyl 3-oxo-pentanoate]
- bitterness: not bitter
